These are yes or no findings as the source states them, for the method shown. Some binding calls cover weakened binding; strength is not graded here.
What was measured:
[1] = target: AXL on CHO-AXL cells (human) (UniProt P30530); assay: flow cytometry on CHO-AXL cells at pH 6.0 and pH 7.4 (curves not assigned to a pH), IgG-Fc-PE secondary antibody, mean fluorescence intensity
[2] = target: AXL on CHO-AXL cells (human) (UniProt P30530); assay: flow cytometry (legend of FIG. 3)
[3] = target: AXL on CHO-AXL cells (human) (UniProt P30530); assay: flow cytometry on CHO-AXL cells, pH 6.0 and pH 7.4

The chains behind the UniProt entries cited, without tags or fusion partners. Residues count along the entry.
UniProt P30530, residues 26-894: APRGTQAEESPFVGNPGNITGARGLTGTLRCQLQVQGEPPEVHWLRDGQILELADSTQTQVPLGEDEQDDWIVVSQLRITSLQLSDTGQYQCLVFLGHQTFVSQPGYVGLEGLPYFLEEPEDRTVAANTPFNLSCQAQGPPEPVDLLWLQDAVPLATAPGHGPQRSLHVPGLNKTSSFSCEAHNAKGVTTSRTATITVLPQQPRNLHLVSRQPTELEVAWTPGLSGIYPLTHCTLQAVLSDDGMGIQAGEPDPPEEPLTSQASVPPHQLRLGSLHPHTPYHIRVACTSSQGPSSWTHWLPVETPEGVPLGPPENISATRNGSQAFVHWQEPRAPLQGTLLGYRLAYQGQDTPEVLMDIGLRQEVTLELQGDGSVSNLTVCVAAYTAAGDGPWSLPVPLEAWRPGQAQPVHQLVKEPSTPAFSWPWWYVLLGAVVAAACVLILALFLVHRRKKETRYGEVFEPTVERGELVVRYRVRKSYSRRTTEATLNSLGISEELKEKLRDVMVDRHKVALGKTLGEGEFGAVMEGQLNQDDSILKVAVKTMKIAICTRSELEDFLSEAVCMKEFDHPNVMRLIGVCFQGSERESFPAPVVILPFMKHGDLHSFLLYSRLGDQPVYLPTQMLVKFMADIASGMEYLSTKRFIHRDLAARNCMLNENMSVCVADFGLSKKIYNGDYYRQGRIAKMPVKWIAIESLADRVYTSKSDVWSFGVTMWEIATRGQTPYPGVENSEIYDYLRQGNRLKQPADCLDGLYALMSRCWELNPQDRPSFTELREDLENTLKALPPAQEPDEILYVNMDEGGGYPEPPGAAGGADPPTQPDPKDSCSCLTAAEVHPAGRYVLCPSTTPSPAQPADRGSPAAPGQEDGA

binding [1]: binds | binding [2]: binds | binding [3]: binds
B1: Hu001-14 antibody (full-length human IgG1, kappa) (antibody, V domains shown)
VH: EVQLVQSGAEVKKPGASVKVSCKASGYTFTSYYMHWVRQAPGQGLEWMGIINPSGGSTSYAQKFQGRVTMTRDTSTSTVYMELSSLRSEDSAVYYCARDWYFDVWGAGTTVTVSA
VL: NIQMTQSPSSVSASVGDRVTITCRASQGISSWLAWYQQKPGKAPKLLIYAASSLQSGVPSRFSGSGSGTDFTLTISSLQPEDFATYYCQQANSFPFTFGGGTKVEIK

Reference: US20250019446A1
